Reference: PubChem BioAssay AID1259331 (Drosophila RNAi Screening Center, 2017)
In all, the deposit lists about 3,100 reagents; this is a random part of them. 126 of all reagents (4.1%) were called active. 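Calls are per reagent; zinc was so toxic that few knock-downs lowered ATP further, so most hits raise ATP.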 The raw values are shown without normalisation. Not stated in the record: the amount of reagent.

Aim: 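Fly transmembrane-protein genes that affect zinc toxicity in cultured cells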 (primary screen)
System: Drosophila S2R+ cells
Reagent: long dsRNA against Drosophila genes
Duration: 5 days (4 days knock-down, then 1 day zinc)
Challenge: zinc chloride at 15 mM final level for 1 day
Measurement: 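Total cellular ATP measured by luciferase luminescence as a viability proxy, turned into Z scores from three plate copies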
Scale: mean Z score: higher = more ATP than other wells, better survival under zinc; ATP luminescence: higher = more ATP, more viable cells
Call rule: 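a reagent is called a hit when its Z score is above 1.5 or below -1.5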
Meaning of the calls: active = hit, ATP up or down; inactive = not a hit

sei [DRSC29359]: mean Z score = -0.795; ATP luminescence, replicate 1 = 39833; ATP luminescence, replicate 2 = 58629; Call = inactive
Atg9 [DRSC38118]: mean Z score = -0.125; ATP luminescence, replicate 1 = 44582; ATP luminescence, replicate 2 = 46678; Call = inactive
Atg9 [DRSC38119]: mean Z score = -0.0176; ATP luminescence, replicate 1 = 48303; ATP luminescence, replicate 2 = 45628; Call = inactive
Pex3 [DRSC10731]: mean Z score = -0.164; ATP luminescence, replicate 1 = 31450; ATP luminescence, replicate 2 = 31266; Call = inactive
CapaR [DRSC23640]: mean Z score = -0.0548; ATP luminescence, replicate 1 = 54524; ATP luminescence, replicate 2 = 55788; Call = inactive
CapaR [DRSC39684]: mean Z score = 0.31; ATP luminescence, replicate 1 = 62215; ATP luminescence, replicate 2 = 69430; Call = inactive
Cad86C [DRSC15611]: mean Z score = -0.324; ATP luminescence, replicate 1 = 33644; ATP luminescence, replicate 2 = 56845; Call = inactive
Cad86C [DRSC27602]: mean Z score = 1.3; ATP luminescence, replicate 1 = 78023; ATP luminescence, replicate 2 = 76819; Call = inactive
Cad86C [DRSC28094]: mean Z score = -0.0567; ATP luminescence, replicate 1 = 60975; ATP luminescence, replicate 2 = 50155; Call = inactive
Or82a [DRSC11996]: mean Z score = -1.01; ATP luminescence, replicate 1 = 46869; ATP luminescence, replicate 2 = 51649; Call = inactive
Or82a [DRSC39482]: mean Z score = -0.287; ATP luminescence, replicate 1 = 41771; ATP luminescence, replicate 2 = 48393; Call = inactive
5-HT1A [DRSC05030]: mean Z score = 0.167; ATP luminescence, replicate 1 = 70476; ATP luminescence, replicate 2 = 73443; Call = inactive
5-HT1A [DRSC26404]: mean Z score = -0.347; ATP luminescence, replicate 1 = 59329; ATP luminescence, replicate 2 = 50583; Call = inactive

A portion taken from the entries so far, as a working copy:
5-HT1A [DRSC05030]: mean Z score = 0.167; ATP luminescence, replicate 1 = 70476; ATP luminescence, replicate 2 = 73443; Call = inactive
5-HT1A [DRSC26404]: mean Z score = -0.347; ATP luminescence, replicate 1 = 59329; ATP luminescence, replicate 2 = 50583; Call = inactive
